# Percent effect of library compounds

The values are deposited in ChEMBL (CHEMBL3988442, “University of Dundee, Small-Polar-MMV Screening Library” (2021)).

Results are given as percent effect. How 0% and 100% were set is not recorded. Most values in the screen are low, and negative values occur. Compounds were drawn at random from those tested, without regard to their results.

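Whole-parasite assay of Trypanosoma brucei over 72 hours; the read-out is not stated. Tested at 30 µM. Direction is inferred from retests: higher values go with stronger inhibition. Values scatter widely below zero; nearly all retest evidence comes from the higher of the two concentrations used. About 64,000 compounds were tested under these conditions; 1.5% (about 940) showed 50% or more at least once.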

Result for Cc1nc(CN2CCCCC2CCc2ccc(O)cc2)no1 (configuration not stated) was 31.84%.
Result for Cl.Cl.c1ccc(-c2cnc3n2CCNC32CCNCC2)cc1 was -72.52%.
Result for CC(C)C(C)N(C(=O)Cn1nc2n(c1=O)CCCCC2)C1CC1 (configuration not stated) was -22.04%.
Result for [H][C@@]12CN(Cc3cccnc3)C[C@]1([H])OCC(=O)N2 was -43.48%.
Result for N[C@H]1CN(C(=O)Cc2ccc(Cl)c(Cl)c2)C[C@@H]1C1CC1 was -60.07%.
Result for CC(C)c1cc(C(=O)NCC2CCCN(c3ncccn3)C2)n(C)n1 (configuration not stated) was -15.99%.
Result for CCc1noc(CN(C)Cc2ccc(N3CCCCC3)cc2)n1 was 4.813%.
Result for CC(C)CN1CC(c2nc(-c3ccc(F)cc3)c[nH]2)CC1=O (configuration not stated) was -3.556%.
Result for Cc1nc2ccc(C(=O)N(CCC#N)CCC#N)cc2nc1C was -24.46%.
Result for CC(C)N(C)C(=O)CN1CCCC(c2ccc(C(=O)O)cc2)C1 (configuration not stated) was -4.352%.
Result for CN(Cc1ccc(Cl)s1)C(=O)COc1cccc(C(N)=O)c1 was -3.154%.
Result for CCn1cncc1-c1nc2c([nH]1)CC(C)(C)CNC2=O was -4.148%.
Result for FC(F)(F)c1[nH]nc2c1CN(Cc1ccccc1)CC2 was 2.363%.
Result for CCS(=O)(=O)CCCN1CCSCC1c1ccc(Cl)cc1 (configuration not stated) was -3.438%.
Result for CC(C)n1nccc1NC(=O)NCCc1nc2ccc(F)cc2n1C was -55.62%.
Result for COc1cccc2[nH]cc(CCNC(=O)N3CCCC3CO)c12 (configuration not stated) was 12.08%.
Result for CCOCCn1c(=O)[nH]c2cc(C(=O)N(C)Cc3nc(C)cs3)ccc21 was -4.805%.
Result for O=S(=O)(NCCn1cc(C2CCOC2)nn1)c1ccc(Cl)cc1 (configuration not stated) was -51.3%.
Result for CC(C)c1nnc(CN2CCCC3(CC2)CN(C)C(=O)O3)o1 (configuration not stated) was -4.839%.
Result for O=C(O)C(F)(F)F.O=C(O)C(F)(F)F.O=S(=O)(NCC1OCCc2cn(Cc3ccccn3)nc21)C1CC1 (configuration not stated) was -87.17%.
Result for CCN(CC(F)(F)F)C(=O)C1CCCN(Cc2ccno2)C1 (configuration not stated) was -34.76%.
Result for CN1CCCC1c1ccnc(C(=O)N(C)C2CCCCC2)c1 (configuration not stated) was 1.105%.
Result for Cc1cc(NC(N)=O)ccc1C(=O)N(C)C was -5.841%.
Result for O=C(c1cscn1)N1CCC[C@]2(C[C@@H](OCC3CC3)CO2)C1 was -113.4%.
Result for COc1nc2c(cc1C(=O)N1CCCC1c1ccccn1)CCC2 (configuration not stated) was 8.735%.
Result for O=C(COc1ccccc1F)NCCC(O)c1ccco1 (configuration not stated) was 6.94%.
Result for O=C(O)c1ccc(=O)n(CC(c2ccc(Cl)cc2)N2CCOCC2)c1 (configuration not stated) was 6.757%.
Result for COc1cccc(CC2CN(C3CCC3)CCO2)c1 (configuration not stated) was -14.09%.
Result for O=C(CN1CCN(c2ncnc3c2CCNCC3)CC1)N1CCCCC1 was -20.17%.
Result for CC(CN1CCCC1=O)NC(=O)c1ccc(C(F)(F)F)[nH]c1=O (configuration not stated) was -13.8%.
Result for Cc1cnn(CC(C)NCc2csc(-c3cccs3)n2)c1 (configuration not stated) was 17.77%.
Result for COCCCN(C(=O)c1ccc(-n2ccnc2)cc1)C1CCN(C)CC1 was -40.04%.
Result for Cc1ccc(NC(=O)CCc2ccco2)cc1N1CCOC1=O was -15.3%.

The first 2 entries again:

* Cc1nc(CN2CCCCC2CCc2ccc(O)cc2)no1 (configuration not stated) : 31.84%
* Cl.Cl.c1ccc(-c2cnc3n2CCNC32CCNCC2)cc1 : -72.52%